Results taken from PubChem BioAssay (EPA / NIEHS).
Values joined by “and” are separate entries in the source; they are usually repeats but may differ in a detail not shown here. Identical values can stand only once. This list was built around the results that the source calls inconclusive (neither active nor inactive); the mix of calls is not that of the screen. For some assays here: A potency beside an inconclusive call is a rough fit, not a confirmed value. The source holds several records for some structures; these can differ, active in one and inactive in another. Active and inactive are the calls of the source. Rule for the calls: active = hit-call score of the fitted dose curve at least 0.9, where 1 is the maximum; inconclusive = response in the unintended direction; inactive = score below 0.9.

Protein sequences, listed by entry. Tags and fused reporters are not part of them. Lines headed by an entry give the natural chain unless they say otherwise; changes in a name come on top.
UniProt Q96RI1: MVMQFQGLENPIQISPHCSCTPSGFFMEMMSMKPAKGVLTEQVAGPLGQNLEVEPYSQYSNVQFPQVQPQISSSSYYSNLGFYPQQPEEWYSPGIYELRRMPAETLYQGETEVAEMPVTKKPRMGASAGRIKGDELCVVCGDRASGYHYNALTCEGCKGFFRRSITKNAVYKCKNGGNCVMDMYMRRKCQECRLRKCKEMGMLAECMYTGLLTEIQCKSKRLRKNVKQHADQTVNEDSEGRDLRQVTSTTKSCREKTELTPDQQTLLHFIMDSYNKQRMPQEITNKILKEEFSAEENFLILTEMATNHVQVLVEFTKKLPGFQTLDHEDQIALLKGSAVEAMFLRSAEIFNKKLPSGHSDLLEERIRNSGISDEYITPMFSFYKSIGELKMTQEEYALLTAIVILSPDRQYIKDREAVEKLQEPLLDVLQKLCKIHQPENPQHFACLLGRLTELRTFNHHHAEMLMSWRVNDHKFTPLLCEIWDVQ
UniProt P19793: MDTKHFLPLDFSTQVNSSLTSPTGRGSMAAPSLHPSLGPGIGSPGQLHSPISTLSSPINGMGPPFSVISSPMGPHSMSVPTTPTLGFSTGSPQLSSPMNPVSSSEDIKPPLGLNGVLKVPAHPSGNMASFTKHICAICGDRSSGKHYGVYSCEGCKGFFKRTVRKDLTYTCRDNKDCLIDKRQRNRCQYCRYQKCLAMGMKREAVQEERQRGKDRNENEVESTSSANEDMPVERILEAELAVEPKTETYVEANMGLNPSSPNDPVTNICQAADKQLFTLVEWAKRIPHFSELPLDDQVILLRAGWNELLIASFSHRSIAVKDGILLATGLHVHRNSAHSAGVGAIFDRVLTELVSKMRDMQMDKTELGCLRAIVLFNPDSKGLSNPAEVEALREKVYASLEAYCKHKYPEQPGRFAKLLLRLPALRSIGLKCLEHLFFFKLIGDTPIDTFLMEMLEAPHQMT
UniProt P04637, whole entry, looked up: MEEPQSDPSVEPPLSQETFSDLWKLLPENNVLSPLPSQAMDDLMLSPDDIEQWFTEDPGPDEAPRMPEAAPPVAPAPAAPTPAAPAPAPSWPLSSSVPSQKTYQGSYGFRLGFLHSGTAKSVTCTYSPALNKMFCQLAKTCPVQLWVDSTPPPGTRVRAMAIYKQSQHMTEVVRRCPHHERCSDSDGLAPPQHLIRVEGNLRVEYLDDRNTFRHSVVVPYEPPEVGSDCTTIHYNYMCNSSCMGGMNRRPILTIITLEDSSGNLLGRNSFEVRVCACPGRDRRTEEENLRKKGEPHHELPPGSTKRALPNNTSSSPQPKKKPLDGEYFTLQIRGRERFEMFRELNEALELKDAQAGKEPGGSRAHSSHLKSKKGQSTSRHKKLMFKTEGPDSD
UniProt P10275: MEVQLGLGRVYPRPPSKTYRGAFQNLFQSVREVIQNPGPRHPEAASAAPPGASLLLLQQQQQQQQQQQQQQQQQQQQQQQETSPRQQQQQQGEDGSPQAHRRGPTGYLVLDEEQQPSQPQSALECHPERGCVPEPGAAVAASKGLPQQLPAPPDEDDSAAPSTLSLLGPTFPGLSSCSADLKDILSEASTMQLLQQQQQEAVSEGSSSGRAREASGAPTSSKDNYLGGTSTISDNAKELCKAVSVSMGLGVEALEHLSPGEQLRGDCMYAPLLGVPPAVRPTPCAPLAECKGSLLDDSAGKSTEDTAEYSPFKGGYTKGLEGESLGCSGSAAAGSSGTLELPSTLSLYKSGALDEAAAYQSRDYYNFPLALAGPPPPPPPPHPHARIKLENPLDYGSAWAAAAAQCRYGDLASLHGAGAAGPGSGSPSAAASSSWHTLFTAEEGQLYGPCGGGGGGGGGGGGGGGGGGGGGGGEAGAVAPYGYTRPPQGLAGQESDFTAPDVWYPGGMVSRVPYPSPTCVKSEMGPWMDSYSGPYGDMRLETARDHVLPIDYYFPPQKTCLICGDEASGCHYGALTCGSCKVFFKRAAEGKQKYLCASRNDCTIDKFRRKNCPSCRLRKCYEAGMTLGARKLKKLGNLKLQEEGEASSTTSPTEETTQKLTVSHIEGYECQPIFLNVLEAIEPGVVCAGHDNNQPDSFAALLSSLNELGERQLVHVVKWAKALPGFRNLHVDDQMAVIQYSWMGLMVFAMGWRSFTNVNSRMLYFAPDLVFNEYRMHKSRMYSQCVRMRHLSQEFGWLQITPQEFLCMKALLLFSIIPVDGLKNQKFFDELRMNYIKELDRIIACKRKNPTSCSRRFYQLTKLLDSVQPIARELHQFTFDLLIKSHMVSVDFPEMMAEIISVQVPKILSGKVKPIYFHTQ
UniProt Q92731, whole entry, looked up: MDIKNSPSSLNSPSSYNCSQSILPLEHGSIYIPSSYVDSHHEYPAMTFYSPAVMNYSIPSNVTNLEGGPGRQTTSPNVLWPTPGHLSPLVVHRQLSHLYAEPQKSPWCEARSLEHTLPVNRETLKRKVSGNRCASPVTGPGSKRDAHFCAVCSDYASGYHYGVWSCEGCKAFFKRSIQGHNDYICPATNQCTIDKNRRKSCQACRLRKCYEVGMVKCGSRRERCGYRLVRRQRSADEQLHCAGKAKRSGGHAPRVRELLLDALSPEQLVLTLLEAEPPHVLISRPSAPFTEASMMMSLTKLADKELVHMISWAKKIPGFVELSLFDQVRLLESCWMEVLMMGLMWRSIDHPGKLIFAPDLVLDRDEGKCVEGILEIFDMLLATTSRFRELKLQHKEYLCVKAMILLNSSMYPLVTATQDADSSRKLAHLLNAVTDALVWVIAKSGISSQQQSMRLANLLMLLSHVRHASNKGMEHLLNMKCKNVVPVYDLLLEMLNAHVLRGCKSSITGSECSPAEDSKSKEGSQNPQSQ
UniProt P37231: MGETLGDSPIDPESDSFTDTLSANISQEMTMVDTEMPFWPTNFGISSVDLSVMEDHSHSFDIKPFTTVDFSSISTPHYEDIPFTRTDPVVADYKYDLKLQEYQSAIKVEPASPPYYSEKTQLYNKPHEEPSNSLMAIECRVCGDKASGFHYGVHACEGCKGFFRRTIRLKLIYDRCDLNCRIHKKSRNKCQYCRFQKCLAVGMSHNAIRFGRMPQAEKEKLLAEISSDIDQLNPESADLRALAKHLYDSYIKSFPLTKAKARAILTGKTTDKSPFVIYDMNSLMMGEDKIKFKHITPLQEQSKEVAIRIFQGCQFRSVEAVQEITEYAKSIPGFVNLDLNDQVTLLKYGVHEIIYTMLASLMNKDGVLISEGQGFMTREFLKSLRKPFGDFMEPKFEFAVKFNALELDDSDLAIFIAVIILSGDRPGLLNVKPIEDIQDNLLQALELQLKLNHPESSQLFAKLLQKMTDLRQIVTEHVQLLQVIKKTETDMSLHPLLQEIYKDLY

How the values were obtained:
[1] = molecular target: Bile acid receptor (Homo sapiens) (UniProt Q96RI1); test: OT_FXR_FXRSRC1_0480: Odyssey Thera (OT) 8-hour HEK293T Protein-Complementation Assay for Farnesoid X receptor/SRC-1 Co-activator (AID 2283383)
Outline: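 HEK293T cells expressing FXR and SRC-1 fused to reporter fragments were dosed with compound for 8 h; fluorescence from the reconstituted reporter marked co-activator recruitment. Gain of signal was fitted against the DMSO baseline.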

[2] = molecular target: Bile acid receptor (Homo sapiens) (UniProt Q96RI1); test: OT_FXR_FXRSRC1_1440: Odyssey Thera (OT) 24-hour HEK293T Protein-Complementation Assay for Farnesoid X receptor/SRC-1 Co-activator (AID 2283384)
Outline: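 HEK293T cells were dosed with compound and read 24 h later by fluorescence intensity from protein-fragment complementation reporting FXR/SRC-1 co-activator interaction. Gain of signal was fitted relative to DMSO negative control as baseline.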

[3] = molecular target: Retinoic acid receptor RXR-alpha (Homo sapiens) (UniProt P19793); test: OT_NURR1_NURR1RXRa_0480: Odyssey Thera (OT) 8-hour HEK293T Protein Complementation Assay for Nurr1/retinoid X receptor (RXR) (AID 2283385)
Outline: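 HEK293T cells expressing Nurr1 and RXRα fused to reporter fragments were dosed with compound for 8 hours. Complex formation was read as fluorescence intensity and analysed as gain of signal against DMSO as baseline.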

[4] = molecular target: Retinoic acid receptor RXR-alpha (Homo sapiens) (UniProt P19793); test: OT_NURR1_NURR1RXRa_1440: Odyssey Thera (OT) 24-hour HEK293T Protein Complementation Assay for Nurr1/retinoid X receptor (RXR) (AID 2283386)
Outline: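 HEK293T cells were dosed with compound and read 24 h later by fluorescence intensity in a protein-fragment complementation format, where Nurr1–RXRα interaction reconstitutes a split reporter. Activity was fitted as gain of signal relative to DMSO baseline.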

[5] = ATG_XTT_Cytotoxicity: Cytotoxicity Assessment in the Attagene TRANS-FACTORIAL HepG2 Assay (AID 2283584);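 note: cells exposed to compound for 24 h before reading; active means loss of viability signal versus DMSO baseline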
Outline: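 HepG2 human liver cells, transiently transfected with multiple GAL4-UAS reporter units, were dosed and read at 24 h by XTT as cell number. Loss of signal was fitted relative to DMSO negative control baseline.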

[6] = TOX21_p53_BLA_p2_viability: Viability Assessment in the Tox21 HCT-116 p53 Agonism Beta-lactamase Assay, Phase 2 (AID 2283591);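 note: compound exposure lasted 16 h at 37 °C; actives lower the ATP signal meaning cytotoxicity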
Outline: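 Cytotoxicity readout: CellTiter-Glo ATP luminescence, 30 min at room temperature, after the beta-lactamase read. Cells were HCT116 exposed 16 h at 37C to compounds pin-transferred at 217-fold dilution from DMSO stocks.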

[7] = TOX21_p53_BLA_p3_viability: Viability Assessment in the Tox21 HCT-116 p53 Agonism Beta-lactamase Assay, Phase 3 (AID 2283593);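 note: cells exposed to compound for 16 h before reading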
Outline: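 Cellular ATP was quantified by CellTiter-Glo luminescence, read after 30 min at room temperature. Beforehand, HCT116 cells (4000/well) received compound 5 h post-seeding, 217-fold diluted from DMSO, then incubated 16 h at 37C.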

[8] = molecular target: Cellular tumor antigen p53 (Homo sapiens) (UniProt P04637); test: TOX21_p53_BLA_p3_ratio: Tox21 HCT-116 p53 Agonism Beta-lactamase Assay, Ratio, Phase 3 (AID 2283596)
Outline: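 HCT116 p53-bla cells (4000/well) given compound in DMSO (217-fold dilution) after 5 h, incubated 16 h at 37C. CCF4-AM substrate 2 h at room temperature; 460/530 nm emission ratio, gain fitted against DMSO.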

[9] = TOX21_p53_BLA_p4_viability: Viability Assessment in the Tox21 HCT-116 p53 Agonism Beta-lactamase Assay, Phase 4 (AID 2283597);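 note: hits lower the luminescence signal meaning cytotoxicity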
Outline: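 HCT116 p53-bla cells (4000/well) rested 5 h at 37C, then received compounds in DMSO (217-fold dilution) for 16 h at 37C, 5% CO2. CellTiter-Glo was added after the CCF4-AM read, and luminescence was read after 30 min at room temperature.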

[10] = TOX21_p53_BLA_p5_viability: Viability Assessment in the Tox21 HCT-116 p53 Agonism Beta-lactamase Assay, Phase 5 (AID 2283600)
Outline: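 Cells were plated at 4000/well, rested 5 h at 37C, then given compounds in DMSO (217-fold dilution) for 16 h at 37C, 5% CO2. Following the CCF4-AM beta-lactamase read, CellTiter-Glo was added and luminescence was read after 30 min at room temperature.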

[11] = molecular target: Agonist Androgen Response Element (ARE), AR (gene 367) (UniProt P10275); test: OT_AR_ARELUC_AG_1440: Odyssey Thera (OT) 24-hour CHO-K1 Luciferase Assay for Agonist Androgen Response Element (ARE) (AID 2283379)
Outline: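 Agonist mode, 24 h exposure in CHO-K1 ARE-luciferase cells; values reflect luminescence induction over vehicle.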

[12] = molecular target: Cellular tumor antigen p53 (Homo sapiens) (UniProt P04637); test: TOX21_p53_BLA_p2_ratio: Tox21 HCT-116 p53 Agonism Beta-lactamase Assay, Ratio, Phase 2 (AID 2283592)
Outline: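 HCT116 cells carrying a p53-responsive beta-lactamase reporter were plated, incubated 5 h at 37C, then dosed with compounds in DMSO (217-fold dilution) for 16 h. CCF4-AM substrate was added for 2 h at room temperature; the 460/530 nm emission ratio gave gain-of-signal activity relative to DMSO.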

[13] = molecular target: Cellular tumor antigen p53 (Homo sapiens) (UniProt P04637); test: TOX21_p53_BLA_p5_ratio: Tox21 HCT-116 p53 Agonism Beta-lactamase Assay, Ratio, Phase 5 (AID 2283599)
Outline: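 Beta-lactamase reporter ratio (blue 460 nm over green 530 nm, 405 nm excitation) after 2 h CCF4-AM loading, in HCT-116 cells exposed 16 h at 37 C to compounds pinned at 217-fold dilution. Increases relative to DMSO baseline scored.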

[14] = molecular target: Cellular tumor antigen p53 (Homo sapiens) (UniProt P04637); test: TOX21_p53_BLA_p4_ratio: Tox21 HCT-116 p53 Agonism Beta-lactamase Assay, Ratio, Phase 4 (AID 2283601)
Outline: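 Signal is the blue/green (460nm/530nm) ratio of cleaved versus uncleaved CCF4-AM substrate, read after 2 h substrate loading. Cells were HCT116 carrying the p53-responsive beta-lactamase reporter, dosed 16 h at 37C, 5% CO2; CellTiter-Glo measured in parallel.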

[15] = molecular target: Estrogen receptor beta (Homo sapiens) (UniProt Q92731); test: OT_ER_ERbERb_1440: Odyssey Thera (OT) 24-hour HEK293T Protein-Complementation Assay for Estrogen Receptor-beta/-beta Homodimer (AID 2283380);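 note: fluorescence gain from ER beta LBD homodimer complementation read by laser scanning cytometry; scored as signal increase over DMSO baseline for both agonists and antagonists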
Outline: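 Fluorescence increase, nuclear for agonists or whole-cell for antagonists, relative to DMSO vehicle, quantified by laser scanning cytometer after fixation and Draq5 staining. Readout from 24 h treatment of HEK293T cells carrying complementation-paired ER beta LBD (aa 310-547).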

[16] = LTEA_HepaRG_LDH_cytotoxicity: Cytotoxicity Assessment in the Life Technologies and Expression Analysis (LTEA) Assay (AID 2283563);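 note: LDH activity released into spent culture medium as a marker of cell death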
Outline: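 Differentiated human HepaRG cells, plated 48 h beforehand, were switched to serum-free induction medium and exposed for 48 h to eight half-log concentrations (top 100 uM) in 0.5% DMSO. LDH was measured in spent medium; activity was fitted relative to DMSO vehicle.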

[17] = molecular target: Peroxisome proliferator-activated receptor gamma (Homo sapiens) (UniProt P37231); test: OT_PPARg_PPARgSRC1_0480: Odyssey Thera (OT) 8-hour Protein-Complementation Assay for Peroxisome Proliferator-activated Receptor Gamma / SRC-1 Co-activator (AID 2283387);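 note: nuclear to cytoplasmic split Venus YFP fluorescence ratio reporting PPARg SRC-1 interaction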
Outline: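 HEK293T transiently transfected with PPARg and SRC-1 fused to Venus YFP fragments, compounds 8 h at 37C. Fixed, Draq5-stained cells imaged; nuclear/cytoplasmic 488 nm fluorescence ratio over at least 350 cells per image; gain fitted versus DMSO.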

Measured: AC50

O=P1(N(CCCl)CCCl)NCCCO1 (centres undefined)
inconclusive: [1] 23.8 µM | [2] 9.92 µM | [3] 0.989 µM | [4] 12.5 µM | [5] 100 µM | [6] 46.1 µM and 46.6 µM | [7] 46.1 µM and 87.8 µM and 23 µM | [8] 46.1 µM and 23 µM | [9] 46.1 µM and 46.6 µM and 23 µM | [10] 46.1 µM and 46.6 µM and 5.59 µM
inactive: [3] | [8]

N#Cc1cccnc1
inconclusive: [1] 50 µM
inactive: [2]

O=S1OCC2C(CO1)C1(Cl)C(Cl)=C(Cl)C2(Cl)C1(Cl)Cl (centres undefined)
active: [6] 46.1 µM and 81.5 µM | [12] 73.9 µM and 86.2 µM | [7] 54.1 µM | [9] 70.9 µM and 85.8 µM | [13] 87.3 µM and 73.3 µM | [10] 75.3 µM and 70.2 µM | [14] 69.2 µM and 74.9 µM
inconclusive: [11] 9.92 µM | [2] 85.6 µM | [3] 13.1 µM and 50 µM | [4] 5.68 µM and 31.8 µM

O=C(Nc1ccccc1)c1ccccc1I
inconclusive: [11] 16.5 µM | [5] 100 µM

c1ccc2c(c1)-c1cccc3cccc-2c13
inactive: [3] | [4] | [14]
inconclusive: [16] 50 µM | [6] 46.1 µM | [9] 46.4 µM | [10] 46.1 µM and 46.4 µM
active: [15] 50 µM

CCC[CH2][Sn]([Cl])([Cl])[CH2]CCC
inconclusive: [1] 1.15 µM | [2] 2.27 µM | [3] 2.19 µM | [4] 1.81 µM
active: [6] 552 nM and 2.76 µM | [12] 1.59 µM and 14.3 µM | [7] 2.47 µM and 1.79 µM | [8] 19.6 µM and 20.1 µM | [9] 2.06 µM and 3.45 µM | [13] 15 µM and 20.4 µM | [10] 2.75 µM and 2.86 µM | [14] 3.21 µM and 13.9 µM

C=CC(=O)NCNC(=O)C=C
inconclusive: [11] 50 µM | [4] 50 µM
inactive: [4] | [6]

CC(=Cc1ccccc1)[N+](=O)[O-]
inconclusive: [1] 4.85 µM | [2] 12.6 µM | [3] 4.55 µM | [4] 11.1 µM | [17] 10.3 µM | [8] 46.1 µM | [9] 46.1 µM
active: [5] 23.6 µM
